Data published in the supplement of paper PMC10338343.
± gives the standard deviation. The list shows a part of the results, in another mix than the full data. Many of these values have a large error. The list shows a part of the results.

tested on: MIWI (PIWIL1) piRISC loaded with L1MC piRNA (30 nt); test: pre-steady-state target cleavage rate (min^-1); higher = faster piRNA-guided slicing of the target; conditions: guide: L1MC piRNA 5'p-UAACUAAAUACUAUGCAAGCUGUAGGUCCU; auxiliary factor: none (no GTSF1)
How it was run: (§1)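 The method was Cleave-'n-Seq, in which uncleaved targets from a transcribed, DNA-blocked target RNA library were sequenced after exposure to active affinity-purified piRISC carrying one synthetic guide, with or without GTSF1 partner protein. Reactions contained 0.1 nM library, 1 nM piRISC and, where present, 500 nM GTSF1 in HEPES–potassium acetate buffer at 33 °C for 0–8 or 0–960 min. Reads were normalised to depth and to weakly complementary targets, three trials were pooled, and k3 was capped at 0.0001 min^-1. The pre-steady-state cleavage rate came from a burst-and-steady-state fit.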

Row | Sequence | pre-steady-state target cleavage rate
1 | UCCUGGAUGAGCUUGCAUAGAUAUUAGUAA | 0.000961 ± 0.0091
2 | UCCUGGAACAGGUUCCAUAGUAUUUAGUUA | 0.000242 ± 0.025
3 | UCCUCCUACAGCUACGAUAGUAUUUAGUUA | 0.000629 ± 0.0065
4 | UCCUGGAUGUCGAACGUAAGUAUUUCAGUUA | 0.000249 ± 0.023
5 | UCCUGGAUGAGCUACGAUAGUAUUUACAAA | 0.000341 ± 0.024
6 | UCCUGGAUGUCGAAGCAUAGUAUUUAGAAA | 0.00124 ± 0.0051
7 | UCCUGGAUGUCGAACCAUAGUAUUUAGUAA | 0.00033 ± 0.012
8 | UCCUGGAUGUCGAACCAUUGUAAUUAGUUA | 0.000255 ± 0.015
9 | UCCUGCUACAGCUUGCUAUGUAUUUAGUAA | 0.00154 ± 0.0045
10 | UCCUGGAACAGCUUCGUUAGUAUUUACAAA | 0.00076 ± 0.0062
11 | UCCUGGAUGUCCUUGCAUAGUAAAAUCAAA [g9:g19:cont:t1A] | 0.000879 ± 0.0077
12 | UCCUGGAACAGCUUGGUUAGUAUUUAGAAA | 0.00282 ± 0.0045
13 | UCCUGGAUGUGCUUGCCAUAGUAUUUAGUUA | 0.00112 ± 0.0071
14 | UCCUGCUACAGCUUGCAUAGAUAUUACAAA | 0.000239 ± 0.017
15 | UCCUCCUACAGCUUGCAUACAAUUUACAAA | 0.000481 ± 0.012
16 | UCCUGGAUGUCGUUCCAUAGUAUUUAGUAA | 0.000301 ± 0.02
17 | UCCUGCUACAGCUUGCAUAGUAUUUUCAAA | 0.00186 ± 0.0047
18 | UCCUGGAACAGCAAGCAUAGUAUUUACAAA | 0.000988 ± 0.009
19 | UCCUGGUACAGCUUGCAUAGUUAAUAGAAA | 0.0018 ± 0.0043
20 | UCCUGCUACAGCUUCCAUAGUAAUUAGUUA | 0.00137 ± 0.0059

Row | Sequence | pre-steady-state target cleavage rate
21 | UCCUGCUACAGCUUGCAUUCUAUUUAGAAA | 0.00101 ± 0.0071
22 | UCCUGGAUGUCGAUGGAAAGUAUUUAGUUA | 0.000482 ± 0.015
23 | UCCUGGUACAGCUUGCAUUCAAUUUUCAAA | 0.000247 ± 0.014
24 | UCCUGCUACAGCUUGCAUUCAAUUUACAAA | 0.000255 ± 0.017
25 | UCCUGGAUGUGCUUCCAUAGUAUUAAGUUA | 0.000916 ± 0.007
26 | UCCUGGAUGUGCUUGCAUUCAAUUUAGAAA | 0.000437 ± 0.017
27 | UCCUGGUACAGCUUGCAUUCAUAAAUCAAA [g13:g24:cont:t1A] | 0.000834 ± 0.0093
28 | UCCUGGAUGUCCUUGCAUAGUUAAUAGUAA | 0.00107 ± 0.005
29 | UCCUGGAUCAGCUUGCAUAGUAAAUACAAA | 0.00139 ± 0.0038
30 | UCCUCCUACAGCUACGAUAGUAUUUAGUAA | 0.000209 ± 0.016
31 | UCCUCCUACAGCUUGGUUAGUAUUUACAAA | 0.00103 ± 0.0038
32 | UCCUCCUACAGCUUGCAAUGUAUUUAGUAA | 0.00233 ± 0.0025
33 | UCCUGGAACUGCUUCCAUAGUAUUUAGUUA | 0.00168 ± 0.0039
34 | UCCUGCUACAGCAAGCAUAGUAUUUAGAAA | 0.000402 ± 0.0082
35 | UCCUGGAUGUCGUAGCAUAGUAUUUUGUUA | 0.00111 ± 0.0076
36 | UCCUGGAUGUGCUUGCAUUCAAUUUAGUAA | 0.000614 ± 0.012
37 | UCCUGCUAGAGCUUGCAUAGUAUUUUCAAA | 0.00187 ± 0.0042
38 | UCCUGGAUGUGCAUGCAUAGAAUUUAGUUA | 0.00139 ± 0.0058
39 | UCCUGGAACAGCUUCCAUAGUAUAUAGUUA | 0.0012 ± 0.0045

tested on: EfPiwi piRISC loaded with L1MC piRNA (26 nt); test: pre-steady-state target cleavage rate (min^-1); guide: L1MC piRNA 5'p-UAACUAAAUACUAUGCAAGCUGUAGG; MIWI and MILI are mouse PIWI proteins and EfPiwi is from a freshwater sponge; tags in brackets are library labels; higher = faster piRNA-guided slicing of the target; conditions: auxiliary factor: 500 nM Ephydatia muelleri Gtsf1
How it was run: as §1

Row | Sequence | pre-steady-state target cleavage rate
40 | UCCUGGAUGAGCUUGCAUAGAUAUUAGUAA | 0.000203 ± 0.025
41 | UCCUGGAACAGGUUCCAUAGUAUUUAGUUA | 0.00255 ± 0.0024
42 | UCCUCCUACAGCUACGAUAGUAUUUAGUUA | 0.00503 ± 0.0031
43 | UCCUGGAUGUCGAACGUAAGUAUUUCAGUUA | < 0.0001
44 | UCCUGGAUGAGCUACGAUAGUAUUUACAAA | 0.000277 ± 0.015
45 | UCCUGGAUGUCGAAGCAUAGUAUUUAGAAA | 0.00121 ± 0.0048
46 | UCCUGGAUGUCGAACCAUAGUAUUUAGUAA | 0.00043 ± 0.012
47 | UCCUGGAUGUCGAACCAUUGUAAUUAGUUA | 0.000332 ± 0.016
48 | UCCUGCUACAGCUUGCUAUGUAUUUAGUAA | 0.000869 ± 0.0053
49 | UCCUGGAACAGCUUCGUUAGUAUUUACAAA | 0.000286 ± 0.012
50 | UCCUGGAUGUCCUUGCAUAGUAAAAUCAAA [g9:g19:cont:t1A] | 0.000705 ± 0.0069
51 | UCCUGGAACAGCUUGGUUAGUAUUUAGAAA | 0.00161 ± 0.0027
52 | UCCUGGAUGUGCUUGCCAUAGUAUUUAGUUA | 0.000944 ± 0.0044
53 | UCCUGCUACAGCUUGCAUAGAUAUUACAAA | 0.000517 ± 0.0083
54 | UCCUCCUACAGCUUGCAUACAAUUUACAAA | 0.00205 ± 0.0061
55 | UCCUGGAUGUCGUUCCAUAGUAUUUAGUAA | 0.000316 ± 0.012
56 | UCCUGGAACAGCAAGCAUAGUAUUUACAAA | 0.00166 ± 0.0046
57 | UCCUGGUACAGCUUGCAUAGUUAAUAGAAA | 0.000875 ± 0.0047

Row | Sequence | pre-steady-state target cleavage rate
58 | UCCUGCUACAGCUUCCAUAGUAAUUAGUUA | 0.00176 ± 0.0022
59 | UCCUGCUACAGCUUGCAUUCUAUUUAGAAA | 0.000506 ± 0.0062
60 | UCCUGGAUGUCGAUGGAAAGUAUUUAGUUA | 0.000494 ± 0.011
61 | UCCUGGUACAGCUUGCAUUCAAUUUUCAAA | 0.000796 ± 0.008
62 | UCCUGCUACAGCUUGCAUUCAAUUUACAAA | 0.000318 ± 0.0095
63 | UCCUGGAUGUGCUUCCAUAGUAUUAAGUUA | 0.000366 ± 0.0087
64 | UCCUGGAUGUGCUUGCAUUCAAUUUAGAAA | 0.000268 ± 0.013
65 | UCCUGGUACAGCUUGCAUUCAUAAAUCAAA [g13:g24:cont:t1A] | 0.000216 ± 0.019
66 | UCCUGGAUCAGCUUGCAUAGUAAAUACAAA | 0.000626 ± 0.0074
67 | UCCUCCUACAGCUUGGUUAGUAUUUACAAA | 0.0023 ± 0.0035
68 | UCCUCCUACAGCUUGCAAUGUAUUUAGUAA | 0.00181 ± 0.0047
69 | UCCUGGAACUGCUUCCAUAGUAUUUAGUUA | 0.00266 ± 0.0013
70 | UCCUGCUACAGCAAGCAUAGUAUUUAGAAA | 0.00266 ± 0.0039
71 | UCCUGGAUGUCGUAGCAUAGUAUUUUGUUA | 0.00016 ± 0.031
72 | UCCUGGAUGUGCUUGCAUUCAAUUUAGUAA | 0.000194 ± 0.022
73 | UCCUGCUAGAGCUUGCAUAGUAUUUUCAAA | 0.00315 ± 0.0025
74 | UCCUGGAUGUGCAUGCAUAGAAUUUAGUUA | 0.00147 ± 0.0042
75 | UCCUGGAACAGCUUCCAUAGUAUAUAGUUA | 0.000948 ± 0.0033
